Experimental data: the supplement of paper PMC12819154, “High-throughput peptide-centric local stability assay extends protein–ligand identification to membrane proteins, tissues and bacteria” (Nature Structural & Molecular Biology, 2025)
The other results are listed elsewhere or left out. Most values lie at the level of the controls, where differences are scatter.

By UniProt entry, the sequences of proteins in these tests, tags left out. Where a name states a change or a piece, a line headed by the entry shows the natural chain unless it says otherwise.
UniProt P28230: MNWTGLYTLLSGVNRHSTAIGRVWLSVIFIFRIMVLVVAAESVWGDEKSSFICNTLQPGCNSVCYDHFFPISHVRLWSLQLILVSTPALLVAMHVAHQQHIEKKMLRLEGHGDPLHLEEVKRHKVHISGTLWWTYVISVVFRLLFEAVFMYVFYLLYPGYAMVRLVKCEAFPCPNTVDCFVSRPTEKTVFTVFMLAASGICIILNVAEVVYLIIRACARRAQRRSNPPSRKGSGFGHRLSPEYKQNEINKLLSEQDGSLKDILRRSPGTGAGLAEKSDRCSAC
UniProt P21107, whole entry: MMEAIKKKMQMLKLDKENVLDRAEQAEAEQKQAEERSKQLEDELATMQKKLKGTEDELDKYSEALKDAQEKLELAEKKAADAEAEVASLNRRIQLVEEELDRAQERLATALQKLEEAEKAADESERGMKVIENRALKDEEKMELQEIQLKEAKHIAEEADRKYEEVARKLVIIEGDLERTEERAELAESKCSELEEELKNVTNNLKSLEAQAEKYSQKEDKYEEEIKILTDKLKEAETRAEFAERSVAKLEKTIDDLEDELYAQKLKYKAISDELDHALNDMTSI
UniProt P23591: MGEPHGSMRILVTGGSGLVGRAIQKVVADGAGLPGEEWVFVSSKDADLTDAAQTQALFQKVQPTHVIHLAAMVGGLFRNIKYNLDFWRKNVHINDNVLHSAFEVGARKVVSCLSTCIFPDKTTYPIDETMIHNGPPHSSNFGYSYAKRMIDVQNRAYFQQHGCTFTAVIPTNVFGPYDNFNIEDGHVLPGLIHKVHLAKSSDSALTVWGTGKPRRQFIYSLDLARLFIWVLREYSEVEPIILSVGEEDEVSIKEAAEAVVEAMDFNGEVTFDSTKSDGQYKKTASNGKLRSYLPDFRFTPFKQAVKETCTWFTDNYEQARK
UniProt P22892: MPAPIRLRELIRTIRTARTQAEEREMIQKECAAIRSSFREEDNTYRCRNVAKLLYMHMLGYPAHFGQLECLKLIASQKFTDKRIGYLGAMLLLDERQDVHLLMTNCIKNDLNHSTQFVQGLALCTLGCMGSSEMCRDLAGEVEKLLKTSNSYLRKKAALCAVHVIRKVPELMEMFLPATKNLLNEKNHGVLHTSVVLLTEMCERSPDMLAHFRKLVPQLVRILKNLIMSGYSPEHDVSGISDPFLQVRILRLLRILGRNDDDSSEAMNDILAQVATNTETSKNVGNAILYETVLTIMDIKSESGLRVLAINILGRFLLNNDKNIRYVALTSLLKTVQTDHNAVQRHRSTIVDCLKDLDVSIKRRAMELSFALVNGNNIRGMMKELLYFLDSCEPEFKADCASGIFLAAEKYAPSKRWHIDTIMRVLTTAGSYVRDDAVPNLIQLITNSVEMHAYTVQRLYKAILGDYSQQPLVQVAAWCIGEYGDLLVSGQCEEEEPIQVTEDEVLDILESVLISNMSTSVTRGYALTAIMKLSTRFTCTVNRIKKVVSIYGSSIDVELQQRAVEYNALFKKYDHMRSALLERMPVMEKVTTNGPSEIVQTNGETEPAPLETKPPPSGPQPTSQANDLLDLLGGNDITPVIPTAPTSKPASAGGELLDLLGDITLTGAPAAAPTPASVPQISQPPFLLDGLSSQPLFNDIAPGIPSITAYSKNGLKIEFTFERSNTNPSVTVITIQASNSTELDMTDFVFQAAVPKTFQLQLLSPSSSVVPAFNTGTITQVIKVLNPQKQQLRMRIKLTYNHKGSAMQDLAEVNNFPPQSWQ
UniProt P28705: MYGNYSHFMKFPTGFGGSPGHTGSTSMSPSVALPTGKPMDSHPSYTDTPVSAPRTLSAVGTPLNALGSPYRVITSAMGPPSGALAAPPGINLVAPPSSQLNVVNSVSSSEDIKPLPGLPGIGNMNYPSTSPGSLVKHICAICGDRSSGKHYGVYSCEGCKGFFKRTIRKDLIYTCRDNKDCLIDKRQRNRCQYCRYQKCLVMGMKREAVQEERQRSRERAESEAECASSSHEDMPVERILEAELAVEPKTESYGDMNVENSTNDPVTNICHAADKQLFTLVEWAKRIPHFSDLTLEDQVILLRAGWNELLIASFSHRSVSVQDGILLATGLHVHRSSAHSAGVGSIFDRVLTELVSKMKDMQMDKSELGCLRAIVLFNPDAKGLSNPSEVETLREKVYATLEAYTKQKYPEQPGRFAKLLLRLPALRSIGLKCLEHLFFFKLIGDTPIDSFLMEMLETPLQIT
UniProt P19639: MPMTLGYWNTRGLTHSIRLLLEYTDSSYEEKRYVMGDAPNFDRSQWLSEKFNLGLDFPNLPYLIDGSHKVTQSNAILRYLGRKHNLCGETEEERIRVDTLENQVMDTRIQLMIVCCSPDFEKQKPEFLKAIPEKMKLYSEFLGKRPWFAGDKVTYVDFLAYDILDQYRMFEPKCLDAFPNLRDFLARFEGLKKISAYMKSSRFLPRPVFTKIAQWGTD
UniProt P31254: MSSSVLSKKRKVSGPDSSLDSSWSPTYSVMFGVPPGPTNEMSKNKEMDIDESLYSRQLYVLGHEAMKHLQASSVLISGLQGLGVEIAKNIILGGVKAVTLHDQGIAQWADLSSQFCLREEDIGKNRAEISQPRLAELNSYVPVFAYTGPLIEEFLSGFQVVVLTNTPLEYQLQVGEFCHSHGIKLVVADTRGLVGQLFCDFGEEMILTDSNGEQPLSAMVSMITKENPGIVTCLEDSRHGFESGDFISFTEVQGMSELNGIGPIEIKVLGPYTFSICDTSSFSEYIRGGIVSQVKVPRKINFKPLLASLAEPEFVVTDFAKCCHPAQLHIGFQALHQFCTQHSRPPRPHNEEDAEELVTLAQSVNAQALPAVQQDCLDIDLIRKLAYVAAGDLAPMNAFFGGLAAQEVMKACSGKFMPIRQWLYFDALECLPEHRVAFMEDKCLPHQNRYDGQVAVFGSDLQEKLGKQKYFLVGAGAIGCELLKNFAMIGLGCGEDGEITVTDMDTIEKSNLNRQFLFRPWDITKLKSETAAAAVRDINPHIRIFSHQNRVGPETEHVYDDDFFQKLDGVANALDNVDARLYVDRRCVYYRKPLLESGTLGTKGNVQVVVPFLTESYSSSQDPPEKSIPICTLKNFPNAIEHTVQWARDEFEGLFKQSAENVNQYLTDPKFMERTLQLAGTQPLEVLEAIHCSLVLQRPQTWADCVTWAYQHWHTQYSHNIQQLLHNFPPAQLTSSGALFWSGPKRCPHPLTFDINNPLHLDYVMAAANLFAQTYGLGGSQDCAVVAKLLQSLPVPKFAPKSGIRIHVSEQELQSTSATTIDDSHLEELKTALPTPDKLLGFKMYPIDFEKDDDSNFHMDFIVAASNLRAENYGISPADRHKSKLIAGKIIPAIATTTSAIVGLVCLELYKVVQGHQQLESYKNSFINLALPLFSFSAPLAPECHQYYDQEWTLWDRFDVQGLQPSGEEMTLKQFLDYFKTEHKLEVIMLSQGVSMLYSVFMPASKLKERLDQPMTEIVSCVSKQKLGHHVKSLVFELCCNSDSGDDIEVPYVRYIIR
UniProt P18340: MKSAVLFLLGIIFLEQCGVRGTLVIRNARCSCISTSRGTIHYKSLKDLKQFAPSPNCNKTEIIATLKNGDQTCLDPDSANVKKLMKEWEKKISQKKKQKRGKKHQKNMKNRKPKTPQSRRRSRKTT
UniProt P35292: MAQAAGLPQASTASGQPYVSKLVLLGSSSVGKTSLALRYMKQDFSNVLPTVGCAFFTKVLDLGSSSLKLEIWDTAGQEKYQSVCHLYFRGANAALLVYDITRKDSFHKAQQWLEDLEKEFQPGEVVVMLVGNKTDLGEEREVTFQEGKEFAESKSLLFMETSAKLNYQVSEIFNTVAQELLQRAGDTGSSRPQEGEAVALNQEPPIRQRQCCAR
UniProt P16301: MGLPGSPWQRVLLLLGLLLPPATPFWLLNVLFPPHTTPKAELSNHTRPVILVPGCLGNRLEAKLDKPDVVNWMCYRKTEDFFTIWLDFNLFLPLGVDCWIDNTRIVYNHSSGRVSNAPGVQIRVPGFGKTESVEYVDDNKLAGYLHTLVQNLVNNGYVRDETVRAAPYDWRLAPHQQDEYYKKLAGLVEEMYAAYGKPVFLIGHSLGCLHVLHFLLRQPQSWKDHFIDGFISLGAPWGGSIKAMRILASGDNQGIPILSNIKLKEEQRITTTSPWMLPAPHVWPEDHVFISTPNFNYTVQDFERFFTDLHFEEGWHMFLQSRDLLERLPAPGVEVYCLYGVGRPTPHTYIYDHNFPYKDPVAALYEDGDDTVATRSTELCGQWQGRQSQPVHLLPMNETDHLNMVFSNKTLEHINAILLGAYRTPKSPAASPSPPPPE
UniProt P16381: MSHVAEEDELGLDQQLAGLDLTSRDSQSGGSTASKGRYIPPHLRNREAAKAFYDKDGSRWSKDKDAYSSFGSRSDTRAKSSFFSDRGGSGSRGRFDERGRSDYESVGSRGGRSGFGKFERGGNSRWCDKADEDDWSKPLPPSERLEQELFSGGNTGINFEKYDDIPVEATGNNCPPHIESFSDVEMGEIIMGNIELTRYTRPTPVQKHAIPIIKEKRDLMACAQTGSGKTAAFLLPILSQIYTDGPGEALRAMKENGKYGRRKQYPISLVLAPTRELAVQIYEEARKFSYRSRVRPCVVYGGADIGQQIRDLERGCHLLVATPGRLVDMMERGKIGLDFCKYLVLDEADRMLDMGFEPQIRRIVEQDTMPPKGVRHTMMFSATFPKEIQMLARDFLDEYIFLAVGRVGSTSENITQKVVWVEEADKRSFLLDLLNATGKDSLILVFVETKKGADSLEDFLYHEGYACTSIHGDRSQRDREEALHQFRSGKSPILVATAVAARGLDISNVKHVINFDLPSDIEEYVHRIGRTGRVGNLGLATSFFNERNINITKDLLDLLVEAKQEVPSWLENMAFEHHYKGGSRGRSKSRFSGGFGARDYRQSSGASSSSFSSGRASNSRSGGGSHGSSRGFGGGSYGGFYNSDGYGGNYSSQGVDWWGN

Compound: CN[C@@H]1C[C@H]2O[C@@](C)([C@@H]1OC)n1c3ccccc3c3c4c(c5c6ccccc6n2c5c31)C(=O)NC4 [staurosporine]
Assay: log2 fold change of tryptic peptide abundance, ligand vs vehicle (limited proteolysis) (log2 ratio); higher = more trypsin-susceptible (destabilized)
Details: ligand concentration: 20 uM; sample: mouse liver crude lysate; replicate design: treated separately

Which log2 fold change does the source give for “UniProt P28230 (peptide sequence: RSPGTGAGLAEK, peptide start residue: 265)” here?
The log2 fold change was -0.193.

How did the log2 fold change turn out when “UniProt P21107 (peptide sequence: LVIIEGDLERTEER, peptide start residue: 170)” was run?
The log2 fold change was 0.18.

“UniProt P23591 (peptide sequence: MIDVQNR, peptide start residue: 149)” was tested. Which log2 fold change did it give?
Its log2 fold change is -0.442.

For “UniProt P22892 (peptide sequence: YVALTSLLK, peptide start residue: 326)”, which log2 fold change is on record?
Its log2 fold change is -0.609.

With “UniProt P28705 (peptide sequence: SSAHSAGVGSIFDR, peptide start residue: 336)” as the target, how does the log2 fold change read?
Its log2 fold change is 0.427.

For “UniProt P19639 (peptide sequence: LLLEYTDSSYEEKR, peptide start residue: 19)”, which log2 fold change is on record?
The log2 fold change was -0.0616.

Which log2 fold change does the source give for “UniProt P31254 (peptide sequence: MYPIDFEK, peptide start residue: 844)” here?
Its log2 fold change is 0.294.

With “UniProt P18340 (peptide sequence: CSCISTSR, peptide start residue: 30)” as the target, how does the log2 fold change read?
The log2 fold change was 0.0131.

“UniProt P35292 (peptide sequence: EVTFQEGKEFAESK, peptide start residue: 141)” was tested. Which log2 fold change did it give?
Its log2 fold change is -0.298.

“UniProt P16301 (peptide sequence: TLEHINAILLGAYR, peptide start residue: 410)” was tested. Which log2 fold change did it give?
The log2 fold change was -0.217.

Which log2 fold change does the source give for “UniProt P16381 (peptide sequence: SGKSPILVATAVAAR, peptide start residue: 489)” here?
The log2 fold change was -0.149.
